# According to PubChem BioAssay AID1347076 (National Center for Advancing Translational Sciences (NCATS), 2019):
# The whole screen tested about 400,000 compounds, of which about 13,000 (3.2%) were called active. This list was built around the results that the source calls inconclusive (neither active nor inactive); the mix of calls is not that of the screen. Calls follow the shape of the dose curve; as a rule, active = well fitted cell-killing curve with a large enough effect; inconclusive = small, poorly fitted or top-dose-only effect, or effect the other way; inactive = flat fitted curve, though single readings scatter. A potency beside an inconclusive call is a rough fit, not a confirmed value.
# Experiment: qHTS assay for MDR1-selective chemotherapeutics: Primary screen using the drug-selected MDR subline cells KB-V1; also: nearly all actives have a fitted effect of over 60% in size
# Conditions: KB-V1 MDR cells viability, CellTiter-Glo, 72 h; activity change, negative = cytotoxicity: at 46.1 µM (top of the series)
# Outline: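 In this primary screen, KB-V1 cells overexpressing P-gp are incubated with library compounds (lowest to highest concentration) for 72 h at 37 degrees C before a luminescent ATP viability read.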
# % is scaled to controls: 0 for no effect and ±100 for the full control effect; potency is read from the fitted curve at half-maximal effect.
SMILES,Potency,"activity change, negative = cytotoxicity"
O=C1CCCN1C(=O)COc1cc(F)ccc1[N+](=O)[O-],"inconclusive: 32.6 µM [rising, partial curve, poor fit]",
CCOC(=O)c1c(C)[nH]c(C)c1S(=O)(=O)N1CCCC(C(=O)NCc2ccc(Cl)cc2)C1 (stereo not drawn),"inconclusive: 23.1 µM [rising, single point]",
O=C(c1cnn2c(C(F)(F)F)cc(-c3cccs3)nc12)N1CCN(C(c2ccccc2)c2ccccc2)CC1,"inconclusive: 23.1 µM [cytotoxic, single point]",
COc1ccccc1C(CNC(=O)COc1cc(C)ccc1Cl)N1CCCC1 (stereo not drawn),"inconclusive: 9.2 µM [cytotoxic, partial curve]",
COc1ccc(N2CCN(CC(=O)Nc3sccc3C#N)CC2)cc1,active: 16.4 µM,
O=C(Nc1ccc(F)cc1)C(Sc1nnc2ccccn12)c1ccccc1 (stereo not drawn),active: 5.8 µM,
N=c1c(C(=O)NCCN2CCOCC2)cc2c(=O)n3ccccc3nc2n1Cc1ccc(F)cc1,inactive,
NS(=O)(=O)c1cccc(NC(=O)CSc2nnc(C3CC3)n2-c2ccccc2)c1,"inconclusive: 0.58 µM [rising, full curve, poor fit]",
CCOC(=O)C(C(C)=O)C(c1ccc(OCCC(C)C)cc1)C(C(C)=O)C(=O)OCC (stereo not drawn),inactive,
COc1ccc(C(NC(=O)CNC(C)=O)C(=O)Nc2ccc(C(C)C)cc2)cc1 (stereo not drawn),"inconclusive: 20.6 µM [cytotoxic, single point]",
CCCCCCCCN1C(=O)[C@H](CC(=O)NCCC(C)C)C[C@@]2(C(=O)OC)CC(C)(C)CC=C12,"inconclusive: 23.1 µM [cytotoxic, partial curve, poor fit]",
CN(Cc1ccccc1)c1ccc(-c2nc(-c3ccccn3)no2)cc1[N+](=O)[O-],"inconclusive: 29.1 µM [cytotoxic, single point]",
CCc1ccc(N(CC(=O)NC2CCCCC2)C(=O)CCC(=O)Nc2ccccn2)cc1,"inconclusive: 5.17 µM [cytotoxic, partial curve]",
Nc1ncc2[nH]c(N)nc2n1,"inconclusive: 4.61 µM [rising, full curve, poor fit]",
CCC(C(=O)NC1CCCC1)N(C(=O)c1snc(C(N)=O)c1N)c1ccc(OC)cc1 (stereo not drawn),inactive,
CCCCc1c(C)c2cc(C)ccc2[nH]c1=O,"inconclusive: 23.1 µM [cytotoxic, single point]",
Cc1cc(C)c(C)c(S(=O)(=O)Nc2ccc(OCC(=O)O)cc2)c1C,"inconclusive: 25.9 µM [rising, single point]",
O=C(NN1CCN(Cc2ccccc2Cl)CC1)c1ccc(Br)cc1,"inconclusive: 9.2 µM [cytotoxic, partial curve]",
COc1cc(NS(=O)(=O)c2ccc(NC(=O)CN3C(=O)c4ccccc4C3=O)cc2)nc(OC)n1,"inconclusive: 8.2 µM [rising, partial curve, poor fit]",
CCn1c(CN2CCC(C)CC2)nc2cc(NC(=O)COc3ccc(Cl)c(C)c3)ccc21,"inconclusive: 32.6 µM [cytotoxic, single point]",
CC1(C(=O)NS(=O)(=O)c2cccc(Cl)c2)CCN1C(=O)c1cccc2ccccc12 (stereo not drawn),inactive,
CCOc1[nH]n(-c2ccccc2)c(=O)c1C=Nc1ccccc1,"inconclusive: 16.4 µM [cytotoxic, single point]",
Cc1cccc(NC(=O)CCn2cnnn2)c1C,inactive,

SMILES,Potency,"activity change, negative = cytotoxicity"
O=C1CCN(Cc2ccc(O)cc2)CCN1[C@H](CO)Cc1ccccc1,inactive,
CCC(=O)N1c2ccccc2CC1C(=O)NCc1ccccc1Cl (stereo not drawn),inactive,
O=C1c2ccccc2C(=O)N1CSc1nnc(Nc2ccccc2F)s1,"inconclusive: 18.4 µM [cytotoxic, single point]",
CN(CC(=O)Nc1ccc(S(=O)(=O)N2CCCC2)cc1)Cc1ccc(Cl)cc1,"inconclusive: 16.4 µM [cytotoxic, single point]",
CC(=O)c1ccc(N2CCN(C(=O)CCC(=O)Nc3ccc4nc(N5CCN(C)CC5)cc(C)c4c3)CC2)cc1,inactive,
CCCc1oc2c(c(=O)c1CC)C(=O)CC(C)(C)C2,"inconclusive: 8.2 µM [cytotoxic, partial curve]",
Cc1ccc(CNC(=O)c2ccc(Cn3c(=O)c4ccccc4n(CC(=O)Nc4ccc(C)cc4)c3=O)cc2)cc1,inactive,
COc1ccc(-c2oc3ncn(CCN4CCOCC4)c(=N)c3c2-c2ccc(OC)cc2)cc1,"inconclusive: 18.4 µM [cytotoxic, partial curve, poor fit]",
Cc1ccc(C2=NC(=O)/C(=C/c3cc(O)c(O)c(Br)c3)S2)cc1,"inconclusive: 3.66 µM [rising, full curve, poor fit]",
C/C(=N/NC(=O)C(O)(c1ccccc1)c1ccccc1)c1ccc([N+](=O)[O-])o1,"inconclusive: 18.4 µM [cytotoxic, single point]",
Cc1cc(C)cc(C(=O)Nc2cccnc2)c1,inactive,
COc1ccc(Cn2cc(S(=O)(=O)c3ccc(Cl)cc3)c(=O)c3cc4c(cc32)OCO4)cc1,inactive,
Cc1cccc(N2CCN(C(=O)N3CCCCC3)CC2)c1C,"inconclusive: 18.4 µM [cytotoxic, single point]",
COc1cc(C)ccc1OCc1cc(C(=O)N2CCCCCCC2)no1,"inconclusive: 2.59 µM [cytotoxic, partial curve, poor fit]",
CC(C)c1ccc(NC(=O)C2(C)Cc3c(-c4cccc(C(N)=O)c4)ccnc3O2)cc1 (stereo not drawn),inactive,
Cc1nc2ccccn2c1C(=O)CSc1ccccc1Cl,active: 16.4 µM,
Cc1ccccc1OCCn1c(-c2ccc(Cl)cc2)nc2ccccc2c1=O,"inconclusive: 29.1 µM [rising, single point]",
Cc1nc2cc(NC(=O)c3ccc([N+](=O)[O-])s3)ccc2s1,"inconclusive: 23.1 µM [cytotoxic, single point]",
O=C1CN(Cc2ccccc2)C(=NCc2ccco2)S1,"inconclusive: 29.1 µM [cytotoxic, single point]",
Cc1ccc(Cn2c(CN3CCOCC3)nc3c2c(=O)n(C)c(=O)n3C)cc1,,inconclusive: -67.4%
N#Cc1ccsc1NC(=O)c1ccc(Cl)c([N+](=O)[O-])c1,"inconclusive: 5.17 µM [cytotoxic, full curve]",
COc1ccc2cc(-c3nc(Cl)c4c5c(sc4n3)CC(C)CC5)c(=O)oc2c1 (stereo not drawn),"inconclusive: 18.4 µM [rising, single point]",
Cc1ccc(N(CC(=O)NCc2ccccc2)C(=O)CCC(=O)Nc2ccccn2)cc1,"inconclusive: 9.2 µM [cytotoxic, partial curve, poor fit]",

# Among those listed so far, these have a furan ring, fused or not:
SMILES,Potency,"activity change, negative = cytotoxicity"
COc1ccc(-c2oc3ncn(CCN4CCOCC4)c(=N)c3c2-c2ccc(OC)cc2)cc1,"inconclusive: 18.4 µM [cytotoxic, partial curve, poor fit]",
C/C(=N/NC(=O)C(O)(c1ccccc1)c1ccccc1)c1ccc([N+](=O)[O-])o1,"inconclusive: 18.4 µM [cytotoxic, single point]",
O=C1CN(Cc2ccccc2)C(=NCc2ccco2)S1,"inconclusive: 29.1 µM [cytotoxic, single point]",

# Going on with the list:

SMILES,Potency,"activity change, negative = cytotoxicity"
C[C@@H]1CN([C@H](C)CO)C(=O)CCCn2nncc2CO[C@H]1CN(C)Cc1ccc2c(c1)OCO2,"inconclusive: 23.1 µM [rising, single point]",
CC(c1ccc2ccccc2c1)c1ccccc1C(=O)O (stereo not drawn),inactive,
COc1ccccc1C(=O)N(Cc1nc(-c2ccc(Cl)cc2)no1)C(C)C,inactive,
Cc1ccc(NC(=O)c2c(Cl)n(C)c3ccccc23)cc1,active: 6.51 µM,
O=C(/C=C/c1ccco1)NC(=S)Nc1cccc([N+](=O)[O-])c1,"inconclusive: 14.6 µM [cytotoxic, single point]",
O=C(Nc1ccc(S(=O)(=O)Nc2cnc3ccccc3n2)cc1)c1ccc(Br)o1,"inconclusive: 16.4 µM [cytotoxic, partial curve]",
COc1ccccc1NC(=O)c1c(NC(=O)COc2ccccc2)sc2c1CCCCC2,inactive,
O=S(=O)(NC1c2cccc3cccc(c23)C1Sc1ncccn1)c1ccc(Cl)cc1 (stereo not drawn),inactive,
O=C(NCCCCCCNC(=O)c1ccccc1O)c1ccccc1O,"inconclusive: 16.4 µM [cytotoxic, partial curve, poor fit]",
CC(=O)Nc1ccc(S(=O)(=O)NCCSCc2c(Cl)cccc2Cl)cc1,active: 5.8 µM,
COc1ccc(C(C(=O)NC2CCCCC2)N(C(=O)c2sc(C)nc2C)c2ccc(OC)cc2)cc1 (stereo not drawn),"inconclusive: 16.4 µM [cytotoxic, partial curve]",
COC(=O)[C@@]12C[C@@H](CC(=O)N3CCCCC3)C(=O)N(Cc3ccco3)C1=CCC(C)(C)C2,"inconclusive: 0.82 µM [cytotoxic, full curve]",
Cc1cc(C)n2nc(SCC3COc4ccccc4O3)nc2n1 (stereo not drawn),active: 23.1 µM,
O=C(NCCc1ccccc1)c1ccc2c(c1)N(Cc1ccccc1)CCS2,inactive,
CCN(CC)CCNc1c(C)cc(CO)c(Cl)c1C,"inconclusive: 23.1 µM [cytotoxic, single point]",
O=C(Nc1c(F)cccc1F)c1ccc2c(c1)CCN2S(=O)(=O)c1ccccc1,inactive,
CCn1c(=O)cc(SCC(=O)N2CCOCC2)c2ccccc21,"inconclusive: 18.4 µM [cytotoxic, single point]",
O=C(c1ccccc1)c1ccc2nc(-c3ccco3)c(-c3ccco3)nc2c1,"inconclusive: 23.1 µM [cytotoxic, single point]",
Fc1ccc(NCc2nnc(SCc3nnc(-c4ccccc4)o3)n2Cc2ccccc2)cc1,"inconclusive: 16.4 µM [cytotoxic, partial curve]",
O=C(CN(Cc1ccccc1)S(=O)(=O)c1ccc(Br)cc1)NCC1CCCO1 (stereo not drawn),"inconclusive: 3.66 µM [cytotoxic, partial curve]",
Clc1ccc(CN2CCC(CNc3ncnc4onc(-c5ccc(Cl)cc5)c34)CC2)cc1,inactive,
COc1ccc(-c2ccc3[nH]c4c(c3c2)CCN2C(=O)[C@@H]([C@H](C)O)[C@@H](N(C)C(=O)Nc3ccccc3)C[C@@H]42)cc1,"inconclusive: 23.1 µM [cytotoxic, partial curve, poor fit]",
